## Primary screen of a compound library

Source: ChEMBL document CHEMBL3988442, “University of Dundee, Small-Polar-MMV Screening Library” (2021).

The filed quantity is “Percent Effect” (%). The record does not define 0% and 100%; most values in the screen are far below 50% and negative numbers occur (in some assays of this library far below -100). Compounds were drawn at random from those tested, without regard to their results. Two or more numbers in one place are separate tests of the same structure; such repeats can differ widely.

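Viability assay of Plasmodium falciparum sporozoites; the read-out is not stated. The concentration is filed as 10 mM, unlikely as a test dose, so the dose is not known. The record gives no direction; compounds that gave an IC50 in retests scored well above the rest, so higher reads as lower viability. Strong results were mostly tested again. Size under these conditions: about 34,000 compounds, about 280 of them at 50% or above in at least one test.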

{"structure": "CC(C)N1CCC(Cc2cncc(-c3ccccc3C(=O)O)n2)C1", "stereo": "centres undefined", "percent effect": 7.129}
{"structure": "CNC(=O)c1cn(C(C)(C)C)c2ncccc12", "percent effect": -7.329}
{"structure": "Cc1cnc2c(S(=O)(=O)N(C)C3CCS(=O)(=O)C3)cccc2c1", "stereo": "centres undefined", "percent effect": -5.476}
{"structure": "Cc1cnc(C(=O)N2Cc3cc(Cl)ccc3OC3(CCOCC3)C2)cn1", "percent effect": -12.2}
{"structure": "COCCN1CC2(CCN(C(=O)c3ccno3)CC2)c2ccccc21.O=C(O)C(F)(F)F", "percent effect": 8.669}
{"structure": "[H][C@@]12COC[C@]1(C(=O)NCc1ccco1)CN(Cc1nc(C)cs1)C2", "percent effect": 11.02}
{"structure": "O=C(O)C(F)(F)F.[H][C@@]12CCN(c3ccc(C)nn3)C[C@]1(C(=O)NC(C)C)CCO2", "percent effect": -17.14}
{"structure": "Cc1nc(C)c(CC(=O)Nc2ncc(C)s2)c(=O)[nH]1", "percent effect": -3.957}
{"structure": "Cc1ccc(F)c(C(=O)N2C[C@@H](C(=O)O)[C@H](c3ccccc3)C2)c1Cl", "percent effect": -6.9}
{"structure": "CC1CCCCN1CCNC(=O)c1ccn(-c2ccc(F)cc2)n1", "stereo": "centres undefined", "percent effect": 9.76}
{"structure": "CSCc1ccc(N2CCC(C(O)Cc3ccccc3)CC2)nc1", "stereo": "centres undefined", "percent effect": -17.42}
{"structure": "O=C(O)C1(Cc2cc(-c3cccc(F)c3)no2)CCOCC1", "percent effect": -16.23}
{"structure": "CNC(=O)C1CCN(Cc2nc(-c3ccc(SC)cc3)oc2C)C1", "stereo": "centres undefined", "percent effect": "-17.68 & 5.16 & 2.023"}
{"structure": "Cn1cc(CN2CCCN(C(=O)c3ccccn3)CC2)cn1", "percent effect": 14.95}
{"structure": "Nc1nccc(C2CCCCN2Cc2cccc(F)c2)n1", "stereo": "centres undefined", "percent effect": 2.15}
{"structure": "Cc1ccc(CC(=O)N(C)CC2(O)CCCN(c3ccccn3)C2)s1", "stereo": "centres undefined", "percent effect": 3.468}
{"structure": "COc1ccc(Cl)cc1NCCC(=O)NCCNc1cnccn1", "percent effect": 2.067}
{"structure": "CCOCCn1nc(C)cc1C(=O)N1CC[C@](C)(O)C(C)(C)C1", "percent effect": -2.368}
{"structure": "Cc1nn(C)c(N(C)C)c1CNCc1cccc(CN(C)C(C)C)c1", "percent effect": 10.38}
{"structure": "CCC(NC(=O)CC(F)(F)F)c1ccccc1OCC(=O)N1CCCC1", "stereo": "centres undefined", "percent effect": "-20.42 & -14.93 & 30.43"}
{"structure": "Cc1cc(C[C@@H]2COC[C@H]2NCc2ccc(C(F)(F)F)cc2)on1.O=C(O)CC(O)(CC(=O)O)C(=O)O", "percent effect": "9.403 & -19.98 & -19.24"}
{"structure": "Cc1csc(C2CCCCN2C(=O)CN(C)Cc2ccccc2)n1", "stereo": "centres undefined", "percent effect": -4.535}
{"structure": "CC(C)c1noc(C(C)N2CCN(Cc3ccccc3C#N)CC2)n1", "stereo": "centres undefined", "percent effect": -1.874}
{"structure": "O=C1OC2(CCN(C(=O)C3NCCc4[nH]cnc43)CC2)c2ccccc21", "stereo": "centres undefined", "percent effect": 8.769}
{"structure": "O=C(O)C(F)(F)F.[H][C@@]12CN(C(=O)c3cccn3C)C[C@]1([H])C(=O)N(Cc1csc(C)n1)C2", "percent effect": 2.286}
{"structure": "CC(C)c1nn(C)c(N2CCOCC2)c1CNCCC(=O)N(C)C", "percent effect": 2.442}
{"structure": "CCc1nccn1C1CCCN(C(=O)c2cc(C3CC3)on2)C1", "stereo": "centres undefined", "percent effect": -5.644}
{"structure": "[H][C@@]12CN(S(C)(=O)=O)C[C@]1(C(=O)NC)CCC21CCN(S(C)(=O)=O)CC1", "percent effect": -6.228}
{"structure": "Cc1ccc2oc(C(=O)N3CCCC(n4ccnc4C)C3)cc2n1", "stereo": "centres undefined", "percent effect": -5.829}
{"structure": "Cc1cnn(CCNCc2ccc(OCc3ccccn3)cc2)c1", "percent effect": -13.73}
{"structure": "CCOCCCNC(=O)c1cn(CC)nc1C", "percent effect": 7.456}
{"structure": "COCC(=O)N1CCc2ccc(=O)n(CC3CC3)c2CC1", "percent effect": -3.682}
{"structure": "CC(C(=O)NS(=O)(=O)Cc1cc(-c2ccccc2)no1)C1CC1", "stereo": "centres undefined", "percent effect": "-13.24 & -9.178"}
{"structure": "Cc1noc(C(C)C)c1C(=O)NS(=O)(=O)c1ccc2c(c1)OCCCO2", "percent effect": -9.808}
{"structure": "O=C(NCCOC1CCCCC1)c1ccc(-c2ccco2)[nH]c1=O", "percent effect": 12.69}
{"structure": "CC(C)c1nccc(N2CCN(CC(=O)N3CCOCC3)CC2)n1", "percent effect": 5.835}
{"structure": "NC(=O)C1CCN(C(=O)c2ccn(-c3cccc(Cl)c3)n2)C1", "stereo": "centres undefined", "percent effect": 3.809}
{"structure": "O=S(=O)(c1cn[nH]c1)N1CCCC(O)(CN2CCOCC2)CC1", "stereo": "centres undefined", "percent effect": 0.06416}
{"structure": "COc1cccc(CC(=O)N2CCCC(c3n[nH]c4nccnc34)C2)c1", "stereo": "centres undefined", "percent effect": -3.533}
{"structure": "Cc1nc(C2CCCN2CCOCC2CC2)no1", "stereo": "centres undefined", "percent effect": 7.878}
{"structure": "COc1ccc(C)cc1CN1CCOC(Cn2nc(C)nc2C)C1", "stereo": "centres undefined", "percent effect": -6.912}
{"structure": "O=C(O)C(F)(F)F.[H][C@]12CCC[C@@]1(COc1ccccn1)CN(C(=O)N(C)C)C2", "percent effect": 2.125}
{"structure": "[H][C@]12CC[C@]([H])(CN(C(=O)c3ccccn3)C1)N(C(=O)CCc1ccsc1)C2", "percent effect": 4.144}
{"structure": "O=C(O)C(F)(F)F.[H][C@@]12CN(Cc3ccsc3)CCO[C@]1([H])CN(C(=O)C1CCOCC1)C2", "percent effect": -11.37}
{"structure": "Cn1ccnc1-c1nc(NC2CCCC2)ncc1-c1cccc(F)c1", "percent effect": 17.08}
{"structure": "O=C(CCc1ccc(Br)cc1F)NS(=O)(=O)c1ccc2c(c1)OCCO2", "percent effect": -11.93}
{"structure": "[H][C@@]12C[C@H](C(=O)N3CCCC3)[C@@]([H])(CN(C(=O)Nc3ccccc3)C1)O2", "percent effect": 1.798}
{"structure": "CCc1nnc2n1CCN(C(=O)c1cc(Cl)c[nH]1)C2", "percent effect": 5.485}
{"structure": "O=C(O)C(F)(F)F.c1ccc(N2CCCC3(CCN(Cc4ccsc4)C3)C2)nc1", "stereo": "centres undefined", "percent effect": -11.73}

The last 5 entries again:

| structure | percent effect |
|---|---|
| `Cn1ccnc1-c1nc(NC2CCCC2)ncc1-c1cccc(F)c1` | 17.08% |
| `O=C(CCc1ccc(Br)cc1F)NS(=O)(=O)c1ccc2c(c1)OCCO2` | -11.93% |
| `[H][C@@]12C[C@H](C(=O)N3CCCC3)[C@@]([H])(CN(C(=O)Nc3ccccc3)C1)O2` | 1.798% |
| `CCc1nnc2n1CCN(C(=O)c1cc(Cl)c[nH]1)C2` | 5.485% |
| `O=C(O)C(F)(F)F.c1ccc(N2CCCC3(CCN(Cc4ccsc4)C3)C2)nc1` (centres undefined) | -11.73% |